The campaign covered roughly 360,000 compounds. About 7,500 (2.1%) were called active. The inconclusive results got no clear call from the source; some entries with a clear call stand among them for comparison. Calls follow the shape of the dose curve; as a rule, active = well fitted inhibition curve with a large enough effect; inconclusive = small, poorly fitted or top-dose-only effect, or effect the other way; inactive = flat fitted curve, though single readings scatter. Potencies beside an inconclusive call are fits to weak or partial responses and may not hold up.
test: Nrf2 qHTS screen for inhibitors; conditions: A549 ARE-Fluc reporter, luciferase luminescence, 18-24 h; activity change, negative = inhibition: at 46 µM (top of the series); also: nearly all actives have a fitted effect of over 60% in size
Procedure, shortened: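 Concentration-response testing used A549 ARE_Fluc cells at 5000 cells/well. Following an 18-24 h compound incubation, viability was read by fluorescence (Ex 405/Em 525) and luciferase output by luminescence.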
% is scaled to controls: 0 for no effect and ±100 for the full control effect; potency is read from the fitted curve at half-maximal effect.

SMILES | Potency | activity change, negative = inhibition
C=CCn1c(SCC(=O)Nc2ccccc2OC)nnc1-c1ccccn1 | inconclusive: 13 µM [falling, partial curve, poor fit] | –
Cc1ccc(NC(=O)c2ccc3ccccc3n2)nc1 | inconclusive: 3.66 µM [activator, full curve] | –
O=C(NCCNC(=O)c1ccc(Br)o1)c1ccc(Br)o1 | – | inactive: -9.34%
Cc1cc(/C=C2/C(=N)N3C(=NC2=O)SN=C3S(C)(=O)=O)c(C)n1-c1ccccc1F | inconclusive: 0.366 µM [activator, full curve, poor fit] | –
O=Cc1cn(CC(=O)Nc2ccccc2)c2ccccc12 | – | inactive: -24%
Cc1ccc(CN(Cc2ccco2)C(=O)c2ccccc2Br)o1 | – | inactive: -24.2%
Cc1ccc(OC(=O)c2cccc(S(=O)(=O)N3CCCC3)c2)c(-n2nc3ccccc3n2)c1 | inconclusive: 18.4 µM [activator, single point] | –
COc1ccc(OCc2cccc(C(=O)O)c2)cc1 | inconclusive: 0.291 µM [activator, full curve] | –
Cc1ccc(/C=N/NC(=O)Nc2ccccc2)o1 | inconclusive: 11.6 µM [activator, partial curve, poor fit] | –
CCOc1ccccc1C1CC(=O)Nc2cc3c(cc21)OCCO3 (centres undefined) | inconclusive: 16.4 µM [falling, partial curve, poor fit] | –
N#C/C(=C/c1ccc(N2CCCCC2)o1)C(=O)Nc1ccc2ccccc2c1 | inconclusive: 29.1 µM [falling, single point] | –
Cc1cc2c(s1)c1cnn(Cc3ccc(OC(F)F)cc3)c(=O)c1n2C | – | inactive: -8.85%
COc1ccc(Cl)cc1NC(=O)c1cccc(S(=O)(=O)Nc2c(C)n(C)n(-c3ccccc3)c2=O)c1 | inconclusive: 10.3 µM [falling, partial curve, poor fit] | –
Brc1ccc(-c2nc(N/N=C/c3cccnc3)c3ccccc3n2)cc1 | inconclusive: 0.82 µM [activator, partial curve] | –
O=C(CSc1nnc2c(n1)[nH]c1ccc(F)cc12)Nc1ccccc1F | – | inactive: 2.96%
CCOC(=O)c1cnc(SCc2ccc(C)cc2)nc1N | – | inactive: 16.4%
Cc1ccc(CNC(=O)Cn2cccc2C(=O)c2ccccc2)cc1 | inconclusive: 23.1 µM [activator, single point] | –
CCOC(=O)N1CCN(c2ncc(C(F)(F)F)cc2Cl)CC1 | inconclusive: 0.58 µM [falling, full curve, poor fit] | –
CCCCn1c(SCc2nnc(-c3ccccc3)o2)nc2c1c(=O)n(C)c(=O)n2C | active: 10.3 µM | –
CSc1ccc(Cl)c(C(=O)OCC(=O)N2CCN(c3ccccc3)CC2)c1 | inconclusive: 0.184 µM [falling, partial curve, poor fit] | –
CCOC(=O)c1cnc(SC)nc1Oc1cccc(NS(=O)(=O)c2ccccc2)c1 | inconclusive: 2.31 µM [falling, partial curve, poor fit] | –
CCN(C(=O)c1cc2c(=O)n3ccccc3nc2s1)C1CCCCC1 | inconclusive: 0.651 µM [activator, full curve, poor fit] | –
Clc1ccc(-n2cc(COCc3ccccc3)nn2)cc1 | inconclusive: 5.8 µM [activator, partial curve] | –

SMILES | Potency | activity change, negative = inhibition
CC(C)(C)c1ccc(S(=O)(=O)Nc2cccc(C3OCCCO3)c2)cc1 | inconclusive: 14.6 µM [falling, partial curve, poor fit] | –
Cc1ccc(NC(=O)Cn2c(=O)c3ccc(Cl)cc3n3nncc23)cc1 | – | inactive: 7.35%
Cc1cccc(/C=N/NC(=O)c2cc(Br)ccc2O)n1 | inconclusive: 29.1 µM [activator, single point] | –
O=C1CCc2cc(S(=O)(=O)NCCC(=O)N3CCN(c4cccc(Cl)c4)CC3)ccc2N1 | inconclusive: 23.1 µM [falling, partial curve] | –
O=C(NNC(=O)c1ccccc1O)c1cc2ccccc2o1 | inconclusive: 16.4 µM [activator, partial curve, poor fit] | –
CCOc1ccc(C2C(C(=O)Nc3ccccc3)=C(C)Nc3nc(-c4ccccc4)nn32)cc1OC (centres undefined) | – | inactive: -3.83%
O=C(O)c1cccnc1Nc1ccc(Cl)cc1 | inconclusive: 5.17 µM [activator, single point] | –
O=C(CN1CCC(n2nnc3cc(C(F)(F)F)ccc32)CC1)Nc1ccc2c(c1)CCC2 | inconclusive: 18.4 µM [falling, single point] | –
COc1ccc(CCN2C(=S)NC3CC2(C)Oc2ccc([N+](=O)[O-])cc23)cc1OC (centres undefined) | inconclusive: 6.51 µM [falling, full curve, poor fit] | –
O=C(Nc1nc(-c2cc(F)ccc2F)cs1)c1ccccn1 | inconclusive: 9.2 µM [activator, partial curve] | –
Cc1nc(SCC(=O)Nc2ccc3c(c2)OCO3)c(C#N)c2c1CCCC2 | inconclusive: 23.1 µM [falling, partial curve] | –
Cc1cc(C)c(S(=O)(=O)N2CCCCC2CCNC(=O)C(=O)NC2CC2)c(C)c1 (centres undefined) | inconclusive: 2.91 µM [activator, full curve] | –
CCOC(=O)c1sc(NC(=O)CNCc2ccccn2)c(C(=O)OCC)c1C | inconclusive: 1.16 µM [activator, full curve] | –
O=C(/C=C/c1cccs1)Nc1cccc(NC(=O)/C=C/c2cccs2)n1 | – | inactive: -24.9%
COc1ccc(Cc2nc(-c3ccc(-n4cccc4)cc3)no2)cc1 | inconclusive: 10.3 µM [falling, partial curve, poor fit] | –
CC(=O)c1ccc(OCc2cc(C(=O)N(C)C(C)c3nccs3)no2)cc1 (centres undefined) | inconclusive: 3.66 µM [activator, partial curve, poor fit] | –
CCOC(=O)NC(Nc1ccc(OC)cc1)(C(F)(F)F)C(F)(F)F | – | inactive: 17.8%
COc1ccc(O)c(-c2cc(-c3ccc(F)cc3)n[nH]2)c1 | inconclusive: 29.1 µM [activator, single point] | –
Cc1ccc(NC(=O)COC(=O)[C@H](C)N2C(=O)C3CC=CCC3C2=O)cc1S(=O)(=O)N(C)C (some centres undefined) | inconclusive: 18.4 µM [activator, single point] | –
CCN(CC)S(=O)(=O)c1cccc(-c2nnc(SCCOc3ccc(Cl)cc3)o2)c1 | – | inactive: -10.9%
Cc1ccc(N=C(c2cccs2)N2CCOCC2)cc1 | inconclusive: 7.31 µM [activator, partial curve] | –
Cc1cccc(-c2noc(CN(C)C(=O)c3ccc4c(c3)OCO4)n2)c1 | inconclusive: 29.1 µM [falling, single point] | –
CN(c1ccc(C(=O)NCCSCc2c(F)cccc2Cl)cc1)S(C)(=O)=O | – | inactive: 3.94%

SMILES | Potency | activity change, negative = inhibition
CCc1cccc(CC)c1NC(=S)NCCc1c(C)[nH]c2ccccc12 | inconclusive: 20.6 µM [falling, single point] | –
O=C(NN1C(=O)c2ccccc2NC1c1ccc([N+](=O)[O-])o1)c1ccccc1 (centres undefined) | – | inactive: -15.4%
CN1/C(=C\C(=O)Nc2ccc(F)cc2)C(C)(C)c2ccccc21 | – | inactive: -18.9%
COc1cccc(/C=C/C(=O)OCC(=O)c2ccc3c(c2)NC(=O)CO3)c1OC | inconclusive: 29.1 µM [falling, single point] | –
O=Cc1ccsc1B(O)O | inconclusive: 20.6 µM [activator, single point] | –
Cc1cc(C(=O)COc2ccccc2Cl)c(C)n1-c1ccc2c(c1)OCO2 | inconclusive: 20.6 µM [activator, partial curve, poor fit] | –
CCOC(=O)c1c(NC(=O)c2ccc(C)cc2)sc2c1CCCCC2 | – | inactive: 22.7%
CN(CC(=O)NC1CCCc2ccccc21)C1CCCCC1 (centres undefined) | inconclusive: 7.31 µM [activator, partial curve, poor fit] | –
N#Cc1cc(C(=O)c2ccccc2OCC(=O)Nc2ccccc2)cn(C2CCCCC2)c1=O | inconclusive: 1.3 µM [activator, full curve, poor fit] | –
CCc1ccc(N2CC(c3nnc(NC(=O)c4ccco4)s3)CC2=O)cc1 (centres undefined) | – | inactive: 3.58%
CCOC(=O)Cc1nnc(NC(=O)CCc2ccccc2)s1 | inconclusive: 14.6 µM [activator, single point] | –
C/C(=N\NC(=O)c1nnn(-c2nonc2N)c1CN1CCCCC1)c1ccccc1O | inconclusive: 4.11 µM [falling, full curve, poor fit] | –
NC(=O)c1ccccc1N/C=C/C(=O)c1ccc(F)cc1 | inconclusive: 4.61 µM [activator, full curve] | –
CC(=O)Nc1ccc(-c2csc(Nc3ccc(S(N)(=O)=O)cc3)n2)cc1 | – | inactive: 10.7%
COCCn1c(=O)[nH]c2cc(C(=O)Nc3cc(OC)c(OC)c(OC)c3)ccc2c1=O | – | inactive: -21.9%
Cc1cccc(C)c1OCC(=O)N(Cc1ccccc1F)C1CCS(=O)(=O)C1 (centres undefined) | – | inactive: 0.717%
COc1ccc(NC(C)=O)cc1NC(=O)CN1CCN(c2ccccn2)CC1 | – | inactive: -3.38%
CCc1ccc(NC(=O)c2sc(-n3nc(C)c(CCC(C)C)c3C)nc2C)cc1 | – | inactive: 17.5%
COc1ccc(OCc2ccc(C(=O)O)cc2)cc1 | inconclusive: 14.6 µM [activator, partial curve, poor fit] | –
Cc1nnc(NCCc2ccccc2)c2ccccc12 | inconclusive: 20.6 µM [activator, partial curve] | –
COc1ccc(NC(=O)c2ccc3oc(=O)c(S(=O)(=O)c4ccc(F)cc4)cc3c2)cc1OC | – | inactive: -17.7%
O=C(c1ccc(CS(=O)Cc2ccc(Cl)cc2)o1)N1CCN(c2cccc(Cl)c2)CC1 (centres undefined) | inconclusive: 14.6 µM [falling, single point] | –
COc1ccc2[nH]c3c(c2c1)CCN1C(=O)C(CC(=O)NC/C=C(\C)CCC=C(C)C)C[C@H](C(=O)N(C(C)C)C(C)C)[C@@]31C (some centres undefined) | inconclusive: 29.1 µM [falling, single point] | –

Retrieved one by one from above:
SMILES | Potency | activity change, negative = inhibition
O=C(O)c1cccnc1Nc1ccc(Cl)cc1 | inconclusive: 5.17 µM [activator, single point] | –
CCOc1ccccc1C1CC(=O)Nc2cc3c(cc21)OCCO3 (centres undefined) | inconclusive: 16.4 µM [falling, partial curve, poor fit] | –
CCOc1ccc(C2C(C(=O)Nc3ccccc3)=C(C)Nc3nc(-c4ccccc4)nn32)cc1OC (centres undefined) | – | inactive: -3.83%

Source: PubChem BioAssay AID504444 (National Center for Advancing Translational Sciences (NCATS), 2011)
